# Test results published in PubChem BioAssay (NCATS).
# Several values for one entry are separate records, joined by “and”; a condition that tells them apart may be missing. Identical values can stand only once. This list was built around the results that the source calls inconclusive (neither active nor inactive); the mix of calls is not that of the screen. For some of these results: Potencies of inconclusive entries are doubtful fits and often do not repeat. Activity calls are given as the source filed them. The call rests on the fitted dose curve; in most records, active means well fitted curve in the direction sought with a large enough effect; inconclusive means small, poorly fitted or top-dose-only effect, or another doubt; inactive means no such curve, though single readings can be large; an effect the other way counts as inactive or inconclusive.
# What was measured:
# [1] = Cell Proliferation Assay against the TMD8 Cell Line (Caspase readout at 16 hrs) (AID 651712); details: TMD8 lymphoma cells, caspase activation luminescence; caspase activation: at 46.1 µM (top of the series); further: potency means the concentration at half of the fitted maximal effect;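 on caspase activation: 0% = DMSO and 100% = 9.2 µM bortezomib caspase activation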
# How it was run: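 Caspase-Glo luminescence after 16 h compound exposure of TMD8 cells, 37 °C, 5% CO2. Medium: RPMI without phenol red, 5% FBS. Normalisation: DMSO = 0%, bortezomib 9.2 uM final = 100%.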
# [2] = Identifying Small Molecule Inhibitors of Pancreatic Cancer Stem Cells (A2780, Spheroid) (AID 1259357); details: Potency: A2780 spheroid viability; viability (percent of control): at 46.1 µM (top of the series);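 further: compound exposure lasted 48 h before the ATP luminescence read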; further: potency means the concentration at half of the fitted maximal effect;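 on viability (percent of control): 100% = DMSO treated cells and 0% = wells without cells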
# How it was run: (§1)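 Endpoint: ATP-based luminescence, 48 h drug exposure. Bortezomib at 9.2 uM final as full-kill control; DMSO vehicle as negative control; activity normalized between vehicle and cell-free wells.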
# [3] = Identifying Small Molecule Inhibitors of Pancreatic Cancer Stem Cells (Panc1, Spheroid) (AID 1259359); details: Panc1 spheroid cancer stem cell viability; viability, % of control: at 46.1 µM (top of the series) unless noted;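 further: compound exposure lasted 48 h before reading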; further: potency means the concentration at half of the fitted maximal effect
# How it was run: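 Spheroids grown 14 days in stem cell media on nonadherent hydrogel before screening; cells attached 4 h, then compound exposure 48 h at 37C, 5% CO2. CellTiter-Glo luminescence normalized to DMSO (no inhibition) and no-cell wells (full inhibition).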
# [4] = Identifying Small Molecule Inhibitors of Pancreatic Cancer Stem Cells (A278, Adherent) (AID 1259361); further: nearly all actives have a fitted effect of over 35% in size;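 on viability (% of control): 100% = DMSO-treated cells and 0% = cell-free media-only wells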
# How it was run: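 Spheroids grown 14 days in stem cell media on hydrogel-coated nonadherent plates; 2D lines seeded directly. Compounds added after 4 h attachment, 48 h at 37C, 5% CO2; CellTiter-Glo luminescence normalized to DMSO (no inhibition) and no-cell wells (full inhibition).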
# [5] = Cell Proliferation Assay against the TMD8 Cell Line (Caspase readout at 8 hrs) (AID 651713); details: TMD8 lymphoma cells, caspase activation luminescence; caspase activation: at 46.1 µM (top of the series);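 further: 0% = DMSO and 100% = 9.2 µM bortezomib caspase signal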
# How it was run: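 Apoptosis read-out: Caspase-Glo luminescence after 8 h compound exposure of TMD8 lymphoma cells at 37C, 5% CO2. Signals were normalized as percent activity between DMSO and bortezomib (9.2 uM final) controls.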
# [6] = Identifying Small Molecule Inhibitors of Pancreatic Cancer Stem Cells (Panc1, Adherent) (AID 1259362); details: Potency: viability unless noted; viability, % of control: at 46.1 µM (top of the series) unless noted; further: potency means the concentration at half of the fitted maximal effect;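 on viability, % of control: compound exposure lasted 48 h before the viability read; plate controls were DMSO-treated cells for no effect and cell-free media wells for full effect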
# How it was run: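 Cytotoxicity read by CellTiter-Glo luminescence after 48 h compound exposure at 37C; percent activity scaled between DMSO-treated cells and cell-free wells. Spheroid formats used cells pre-formed 14 days in stem cell media on hydrogel.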
# [7] = qHTS of pediatric cancer cell lines to identify multiple opportunities for drug repurposing: Primary screen for BT-12 cells (AID 1347101); further: potency means the concentration at half of the fitted maximal effect; nearly all actives have a fitted effect of over 25% in size
# How it was run: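 Cells (500-1,000/well) rested 5 h, then received compounds for 48 h; metabolically active cells were measured by CellTiter-Glo luminescence. Final concentrations spanned up to 46 µM (MIPE, 11-point) or 0.59 nM-46 µM (NPC, 8-point) in primary screens, 11-point in follow-ups.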
# [8] = qHTS of pediatric cancer cell lines to identify multiple opportunities for drug repurposing: Primary screen for Rh18 cells (AID 1347102); further: potency means the concentration at half of the fitted maximal effect; nearly all actives have a fitted effect of over 65% in size
# How it was run: (§2)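 Viability after 48 h compound treatment at 37C, 500-1,000 cells/well, read as ATP luminescence with CellTiter-Glo. Primary screens used 11-point (MIPE, 0.78 nM-46 µM) or 8-point (NPC, 0.59 nM-46 µM) final concentrations; follow-up screens used 11-point dilutions.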
# [9] = qHTS of pediatric cancer cell lines to identify multiple opportunities for drug repurposing: Primary screen for Rh30 cells (AID 1347107); further: potency means the concentration at half of the fitted maximal effect; nearly all actives have a fitted effect of over 75% in size
# How it was run: as §2
# [10] = qHTS of pediatric cancer cell lines to identify multiple opportunities for drug repurposing: Primary screen for Rh41 cells (AID 1347108); further: potency means the concentration at half of the fitted maximal effect; nearly all actives have a fitted effect of over 70% in size
# How it was run: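 Primary screen of approved and investigational compounds on cells in growth media at 37 degrees C, 5% CO2. MIPE set at 11-point and NPC set at 8-point dilutions; viability scored by ATP-based luminescence at 48 hours.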
# [11] = Quantitative High-Throughput drug screen in 47 multiple myeloma cell lines against the NCATS MIPE library collection: JIM1_ECACC cell viability assay (AID 1918964; further: potency means the concentration at half of the fitted maximal effect)
# How it was run: (§3)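 Approved and investigational drugs from MIPE 4.0 were added by pin tool to 500 cells per well. After 48 hours at 37C, ATP-based CellTiter-Glo luminescence indicated remaining viability.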
# [12] = Quantitative High-Throughput drug screen in 47 multiple myeloma cell lines against the NCATS MIPE library collection: KMS20_JCRB cell viability assay (AID 1918973); details: CellTiter-Glo ATP, 48 h; viability (% of DMSO): at 45.8 µM (top of the series); further: potency means the concentration at half of the fitted maximal effect; nearly all actives have a fitted effect of over 45% in size
# How it was run: as §3
# [13] = Quantitative High-Throughput drug screen in 47 multiple myeloma cell lines against the NCATS MIPE library collection: KMS21BM_JCRB cell viability assay (AID 1918974); details: ATP luminescence, 48 h; viability: at 45.8 µM (top of the series); further: potency means the concentration at half of the fitted maximal effect
# How it was run: as §3
# [14] = Quantitative High-Throughput drug screen in 47 multiple myeloma cell lines against the NCATS MIPE library collection: MOLP8_DSMZ cell viability assay (AID 1918977); details: MOLP8 myeloma viability, CellTiter-Glo ATP luminescence, 48 h; viability (% of control): at 45.8 µM (top of the series); further: potency means the concentration at half of the fitted maximal effect; nearly all actives have a fitted effect of over 45% in size
# How it was run: (§4)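 Cells were exposed to library compounds for 48 hours, after which ATP was measured by CellTiter-Glo. Signal was taken as median relative luminescence units.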
# [15] = Quantitative High-Throughput drug screen in 47 multiple myeloma cell lines against the NCATS MIPE library collection: LP1_DSMZ cell viability assay (AID 1918982); further: nearly all actives have a fitted effect of over 35% in size; further: potency means the concentration at half of the fitted maximal effect
# How it was run: as §4
# [16] = Quantitative High-Throughput drug screen in 47 multiple myeloma cell lines against the NCATS MIPE library collection: L363_DSMZ cell viability assay (AID 1918984); details: L363 myeloma viability, CellTiter-Glo ATP luminescence, 48 h; viability (% of control): at 45.8 µM (top of the series); further: potency means the concentration at half of the fitted maximal effect; nearly all actives have a fitted effect of over 40% in size
# How it was run: as §4
# CRL-7250 = normal cell line; experiment: Cytotoxic Profiling of Annotated Libraries Using Quantitative High-Throughput Screening (AID 1296008); details: Five cell lines viability, CellTiter-Glo ATP luminescence, 48-72 h; max response: stronger effect = lower value; further: nearly all actives have a fitted effect of over 60% in size; further: potency means the concentration at half of the fitted maximal effect; on max response: on the % scale 0 is the no-effect control and ±100 the full control effect
# How it was run: (§5)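 Cells exposed to compounds for 48 or 72 hr at 37 degrees Celsius. Viability read as ATP-coupled luminescence with CellTiter-Glo after 10 min at room temperature.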
# [17] = Identifying Small Molecule Inhibitors of Pancreatic Cancer Stem Cells (SN12C, Spheroid) (AID 1259360); details: Potency: SN12C spheroid viability; further: potency means the concentration at half of the fitted maximal effect;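 on viability (% of control): 100% = DMSO-treated cells and 0% = wells without cells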
# How it was run: as §1
# [18] = P-glycoprotein substrates identified in KB-8-5-11 adenocarcinoma cell line, qHTS therapeutic library screen (AID 1346987); further: potency means the concentration at half of the fitted maximal effect; nearly all actives have a fitted effect of over 65% in size
# How it was run: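 Compounds are pinned in dose-response onto KB-8-5-11 cells (500 cells/well, colchicine-free medium) and left 72 h at 37 degree C. CellTiter-Glo luminescence then yields AC50 values.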
# HEK293 = experiment: Cytotoxic Profiling of Annotated Libraries Using Quantitative High-Throughput Screening (AID 1296008); details: Five cell lines viability, CellTiter-Glo ATP luminescence, 48-72 h; max response: stronger effect = lower value; further: nearly all actives have a fitted effect of over 60% in size; further: potency means the concentration at half of the fitted maximal effect; on max response: on the % scale 0 is the no-effect control and ±100 the full control effect
# How it was run: as §5
smiles,measurement,setting,value
Cc1ccc2c(c1)C(=O)[C@@]1(O)CCN(c3ccccc3)C1=N2,Potency,[1],inactive
same,Potency,[2],"inconclusive: 0.0033 µM [rising, full curve, poor fit]"
same,Potency,[3],"inconclusive: 18.7 µM [cytotoxic, partial curve, poor fit]"
same,IC50 (viability decrease),[4],inactive
C[C@@H]1C[C@H]2[C@@H]3CCC4=CC(=O)C=C[C@]4(C)C3(F)[C@@H](O)C[C@]2(C)[C@@]1(O)C(=O)CO (stereo partly drawn),Potency,[1],inactive
same,Potency,[5],inactive
same,Potency,[2],inactive
same,Potency,[3],"inconclusive: 2.09 µM [cytotoxic, full curve, poor fit]"
same,IC50 (viability decrease),[4],active: 23.5 µM
same,Potency,[6],"inconclusive: 0.526 µM [cytotoxic, partial curve, poor fit]"
CC(C)=CCCC(C)=CCCC(C)=CCSc1ccccc1C(=O)O,Potency,[2],"inconclusive: 0.209 µM [rising, full curve, poor fit]"
same,"viability, % of control",[3],inconclusive: 103%
same,IC50 (viability decrease),[4],"inconclusive: 33.2 µM [cytotoxic, partial curve, poor fit]"
same,Potency,[6],"inconclusive: 0.0015 µM [rising, full curve, poor fit]"
same,Potency,[7],"inconclusive: 0.968 µM [cytotoxic, full curve]"
same,Potency,[8],active: 11.8 µM
same,Potency,[9],"inconclusive: 4.18 µM [cytotoxic, partial curve]"
same,Potency,[10],active: 4.69 µM
same,Potency,[11],"inconclusive: 0.662 µM [cytotoxic, full curve]"
same,Potency,[12],active: 5.26 µM
same,Potency,[13],active: 5.9 µM
same,Potency,[14],active: 1.48 µM
same,Potency,[15],"inconclusive: 0.526 µM [cytotoxic, full curve]"
same,Potency,[16],"inconclusive: 0.935 µM [cytotoxic, full curve]"
same,Potency,CRL-7250,active: 0.148 µM
NC(=O)c1ncn([C@@H]2O[C@H](CO)[C@@H](O)[C@H]2O)c1N,Potency,[1],inactive
same,viability (percent of control),[2],inconclusive: 107%
same,Potency,[17],"inconclusive: 0.132 µM [rising, full curve, poor fit]"
same,IC50 (viability decrease),[4],inactive
same,"viability, % of control",[6],inconclusive: 129%
C/C(=C\C(=O)Nc1ccccc1C(=O)O)c1ccc2ccccc2c1,Potency,[1],"inconclusive: 14.8 µM [activator, partial curve]"
same,Potency,[2],"inconclusive: 0.0132 µM [rising, full curve, poor fit]"
same,"viability, % of control",[3],inconclusive: 76.8%
same,IC50 (viability decrease),[4],"inconclusive: 20.9 µM [cytotoxic, partial curve]"
CC1=C(/C=C/C(C)=C/C=C/C(C)=C/C(=O)Nc2ccc(O)cc2)C(C)(C)CCC1,Potency,[1],"inconclusive: 23.5 µM [activator, single point]"
same,caspase activation,[5],inconclusive: 181% [activator]
same,Potency,[2],"inconclusive: 0.332 µM [cytotoxic, full curve, poor fit]"
same,Potency,[3],"inconclusive: 20.9 µM [cytotoxic, partial curve, poor fit]"
same,Potency,[6],active: 23.5 µM
same,Potency,[8],"inconclusive: 26.6 µM [cytotoxic, single point]"
same,Potency,[9],"inconclusive: 15 µM [cytotoxic, single point]"
same,Potency,[10],active: 9.44 µM
C[C@H](NC(=O)Cc1cc(F)cc(F)c1)C(=O)N[C@@H]1C(=O)N(C)c2ccccc2-c2ccccc21,viability (percent of control),[2],inconclusive: 131%
same,Potency,[17],inactive
same,IC50 (viability decrease),[4],inactive
same,"viability, % of control",[6],inconclusive: 99%
same,Potency,[18],"inconclusive: 11.6 µM [inhibitor, partial curve, poor fit]"
same,Potency,[11],"inconclusive: 20.9 µM [cytotoxic, partial curve, poor fit]"
same,Potency,[12],"inconclusive: 6.62 µM [cytotoxic, partial curve, poor fit]"
same,viability,[13],active: 138%
same,Potency,[14],"inconclusive: 0.0021 µM [rising, full curve, poor fit]"
same,Potency,[15],inactive
same,Potency,[16],"inconclusive: 0.0372 µM [rising, full curve, poor fit]"
same,Potency,CRL-7250,"inconclusive: 26.4 µM [inhibitor, single point]"
same,Potency,HEK293,"inconclusive: 37.2 µM [inhibitor, single point]"
same,max response,HEK293,inactive: -10.7%
CN(NC(=O)CC(=O)NN(C)C(=S)c1ccccc1)C(=S)c1ccccc1,Potency,[2],"inconclusive: 11.8 µM [rising, full curve, poor fit]"
same,Potency,[3],active: 0.0033 µM
same,IC50 (viability decrease),[4],"inconclusive: 0.059 µM [cytotoxic, full curve]"
same,Potency,[6],inactive
O=C(c1ccc(Nc2nccc(-c3cc4ccccc4s3)n2)cc1)N1CCC(N2CCCC2)CC1,Potency,[1],inactive
same,caspase activation,[5],inconclusive: 50.7% [activator]
same,Potency,[2],"inconclusive: 37.2 µM [cytotoxic, single point]"
same,Potency,[3],"inconclusive: 23.5 µM [cytotoxic, partial curve, poor fit]"
same,IC50 (viability decrease),[4],active: 18.7 µM
same,Potency,[18],active: 8.33 µM and active: 16.4 µM and active: 20.6 µM
same,Potency,[9],active: 23.5 µM
same,Potency,[11],active: 4.69 µM
same,Potency,[13],active: 5.26 µM
same,Potency,[14],active: 13.2 µM
same,Potency,[15],active: 20.9 µM
same,Potency,[16],active: 1.48 µM
same,Potency,HEK293,"active: 5.26 µM and inconclusive: 18.4 µM [inhibitor, single point]"
